Results deposited as PubChem BioAssay AID1259308 (NCATS, 2017)
The deposit covers about 59,000 reagents; below is a part drawn at random. About 1,510 of them (2.6%) count as active. 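Calls use total luciferase alone and ignore viability, so some active siRNAs may act by altering cell number.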 The numbers tell different reagents against one gene apart. Further read-outs or replicates are left out here.

- Purpose: 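Genes whose loss raises luciferase production in HEK293 cells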 (primary screen)
- Cells: human HEK293 embryonic kidney cells stably expressing firefly luciferase (HEK-CMV-Luc2-Hygro)
- Reagent: single siRNA against human genes, 0.8 pmol siRNA per well
- Duration: 72 h
- Detection: 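Reporter luminescence and viable-cell signal on separate replicate plates, given as percent of non-targeting control and median/MAD z-scores, plus per-cell luciferase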
- Scale: total luciferase, z-score and total luciferase, % of control: higher = more reporter protein produced
- Hit rule: 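Active when the median/MAD z-score for overall luciferase is greater than 3; a gene was taken forward for validation with new siRNAs if at least two of its three siRNAs passed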
- Calls: active = raised luciferase; inactive = no rise

After knock-down of MLLT6 (MLLT6, PHD finger containing) #1, the record shows total luciferase, z-score 0.815; total luciferase, % of control 98.1; inactive. MLLT6 (MLLT6, PHD finger containing) #2 scored total luciferase, z-score -0.628; total luciferase, % of control 69.4; inactive. MLLT6 (MLLT6, PHD finger containing) #3 showed total luciferase, z-score -0.277; total luciferase, % of control 76.4; inactive. After knock-down of OR4C16 (olfactory receptor family 4 subfamily C member 16) #1, the record shows total luciferase, z-score 0.0308; total luciferase, % of control 82.5; inactive. With knock-down of OR4C16 (olfactory receptor family 4 subfamily C member 16) #2 the results were total luciferase, z-score 0.137; total luciferase, % of control 84.6; inactive. OR4C16 (olfactory receptor family 4 subfamily C member 16) #3 gave total luciferase, z-score 2.94; total luciferase, % of control 140; inactive.

Knock-down of ZNF260 (zinc finger protein 260) #1 came out at: total luciferase, z-score -0.373; total luciferase, % of control 74.5; inactive. For ZNF260 (zinc finger protein 260) #2, the entry reads total luciferase, z-score -0.687; total luciferase, % of control 68.2; inactive. Knock-down of ZNF260 (zinc finger protein 260) #3 resulted in: total luciferase, z-score -0.853; total luciferase, % of control 64.9; inactive. With knock-down of ARHGAP6 (Rho GTPase activating protein 6) #1 the results were total luciferase, z-score -0.657; total luciferase, % of control 68.8; inactive. With knock-down of ARHGAP6 (Rho GTPase activating protein 6) #2 the results were total luciferase, z-score -0.416; total luciferase, % of control 73.6; inactive. ARHGAP6 (Rho GTPase activating protein 6) #3 showed total luciferase, z-score 0.284; total luciferase, % of control 87.5; inactive.

For POLD2 (DNA polymerase delta 2, accessory subunit) #1, the entry reads total luciferase, z-score -0.119; total luciferase, % of control 79.5; inactive. Against POLD2 (DNA polymerase delta 2, accessory subunit) #2, the entry reads total luciferase, z-score -0.782; total luciferase, % of control 66.3; inactive. After knock-down of POLD2 (DNA polymerase delta 2, accessory subunit) #3 the results were total luciferase, z-score 0.0768; total luciferase, % of control 83.4; inactive.

Reprinted from the entries so far for reference:
OR4C16 (olfactory receptor family 4 subfamily C member 16) #3 | total luciferase, z-score: 2.94; total luciferase, % of control: 140; call: inactive
ZNF260 (zinc finger protein 260) #1 | total luciferase, z-score: -0.373; total luciferase, % of control: 74.5; call: inactive
ZNF260 (zinc finger protein 260) #2 | total luciferase, z-score: -0.687; total luciferase, % of control: 68.2; call: inactive
ZNF260 (zinc finger protein 260) #3 | total luciferase, z-score: -0.853; total luciferase, % of control: 64.9; call: inactive
ARHGAP6 (Rho GTPase activating protein 6) #1 | total luciferase, z-score: -0.657; total luciferase, % of control: 68.8; call: inactive
ARHGAP6 (Rho GTPase activating protein 6) #2 | total luciferase, z-score: -0.416; total luciferase, % of control: 73.6; call: inactive

Further entries follow:
With knock-down of POLM (DNA polymerase mu) #1, the record shows total luciferase, z-score -0.571; total luciferase, % of control 70.5; inactive. After knock-down of POLM (DNA polymerase mu) #2, the screen gave total luciferase, z-score 0.698; total luciferase, % of control 95.8; inactive. After knock-down of POLM (DNA polymerase mu) #3, the record shows total luciferase, z-score -0.685; total luciferase, % of control 68.3; inactive. After knock-down of SMPD1 (sphingomyelin phosphodiesterase 1) #1, the record shows total luciferase, z-score 1.48; total luciferase, % of control 111; inactive. After knock-down of SMPD1 (sphingomyelin phosphodiesterase 1) #2 the results were total luciferase, z-score 0.611; total luciferase, % of control 94; inactive. Silencing of SMPD1 (sphingomyelin phosphodiesterase 1) #3 gave: total luciferase, z-score 0.0971; total luciferase, % of control 83.8; inactive.

Knock-down of CRYGN (crystallin gamma N) #1 resulted in: total luciferase, z-score 1.76; total luciferase, % of control 117; inactive. After knock-down of CRYGN (crystallin gamma N) #2, the record shows total luciferase, z-score 0.543; total luciferase, % of control 92.7; inactive. CRYGN (crystallin gamma N) #3 scored total luciferase, z-score -1.77; total luciferase, % of control 46.7; inactive. Depletion of CFB (complement factor B) #1 gave: total luciferase, z-score 0.404; total luciferase, % of control 89.9; inactive. With knock-down of CFB (complement factor B) #2, the screen gave total luciferase, z-score 1.46; total luciferase, % of control 111; inactive. Depletion of CFB (complement factor B) #3 resulted in: total luciferase, z-score -0.727; total luciferase, % of control 67.4; inactive.

LOC644667 (golgin A7 pseudogene) #1 gave total luciferase, z-score -0.49; total luciferase, % of control 72.1; inactive. After knock-down of LOC644667 (golgin A7 pseudogene) #2 the results were total luciferase, z-score -0.137; total luciferase, % of control 79.2; inactive. Against LOC644667 (golgin A7 pseudogene) #3, the entry reads total luciferase, z-score 4.01; total luciferase, % of control 162; active. For AAGAB (alpha and gamma adaptin binding protein) #1, the entry reads total luciferase, z-score -0.274; total luciferase, % of control 76.4; inactive. Silencing of AAGAB (alpha and gamma adaptin binding protein) #2 gave: total luciferase, z-score 3.98; total luciferase, % of control 161; active. AAGAB (alpha and gamma adaptin binding protein) #3 showed total luciferase, z-score -0.458; total luciferase, % of control 72.8; inactive.

For SOSTDC1 (sclerostin domain containing 1) #1, the values are total luciferase, z-score 0.897; total luciferase, % of control 99.7; inactive. After knock-down of SOSTDC1 (sclerostin domain containing 1) #2, the record shows total luciferase, z-score 0.379; total luciferase, % of control 89.4; inactive. SOSTDC1 (sclerostin domain containing 1) #3 showed total luciferase, z-score 0.897; total luciferase, % of control 99.7; inactive. Against MAP1LC3C (microtubule associated protein 1 light chain 3 gamma) #1, the values are total luciferase, z-score -0.212; total luciferase, % of control 77.7; inactive. MAP1LC3C (microtubule associated protein 1 light chain 3 gamma) #2 showed total luciferase, z-score -0.439; total luciferase, % of control 73.2; inactive. After knock-down of MAP1LC3C (microtubule associated protein 1 light chain 3 gamma) #3, the record shows total luciferase, z-score -0.627; total luciferase, % of control 69.4; inactive.

Silencing of FKBP6P2 (FKBP6 pseudogene 2) #1 gave: total luciferase, z-score 1.07; total luciferase, % of control 103; inactive. Silencing of FKBP6P2 (FKBP6 pseudogene 2) #2 resulted in: total luciferase, z-score 0.0173; total luciferase, % of control 82.2; inactive. Knock-down of FKBP6P2 (FKBP6 pseudogene 2) #3 came out at: total luciferase, z-score -0.0799; total luciferase, % of control 80.3; inactive.
